Laboratory results: PubChem BioAssay AID504764 (Drosophila RNAi Screening Center, 2011)
In all, the deposit lists about 22,000 reagents; below is a random part of those with a known target gene and a result. Of all reagents, 403 (1.9%) were called active. 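Unnormalised raw counts per well; ratio z-scores behind the hit calls and whether each hit raises or lowers signal are not deposited.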 The numbers tell different reagents against one gene apart. A plus sign joins genes that one reagent is predicted to hit. Not stated in the record: the amount of reagent.

Purpose: 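Genes whose knock-down alters Notch-dependent transcription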 (primary screen)
System: Drosophila Kc167 cells
Reagents: long dsRNA against Drosophila genes
Duration: about 5 days (4 days dsRNA, then 24 h after transfection)
Conditions: transfection of constitutively active membrane-tethered Notch lacking the extracellular domain, read 24 h later
Measurement: 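Light from a Notch-responsive E(spl)m3 luciferase reporter under active Notch, with control-promoter and no-Notch reporter wells to normalise; raw counts from paired wells a and b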
Reading the numbers: induced reporter light, run 1, well a and induced reporter light, run 1, well b: higher = more light from the Notch target reporter with active Notch; control promoter light, run 1, well a and control promoter light, run 1, well b: higher = more light from the viral control promoter (cell number, transfection, viability); uninduced reporter light, run 1, well a: higher = more light from the Notch target reporter without active Notch
Hit rule: 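Wells with low control signal or poorly matching duplicates excluded; duplicates averaged; per source plate, z beyond ±2 for induced/control log2 ratio or beyond ±1.8 for induced/uninduced marks a hit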
Meaning of the calls: active = modifier hit (raised or lowered Notch signal); inactive = not a hit

gene	reagent no.	induced reporter light, run 1, well a	induced reporter light, run 1, well b	control promoter light, run 1, well a	control promoter light, run 1, well b	uninduced reporter light, run 1, well a	Call
CG7691	1	2.35e5	1.90e5	2.62e5	2.23e5	13540	inactive
CG1231	1	3.34e5	2.76e5	4.21e5	3.27e5	13520	inactive
CG12426	1	1.52e5	1.03e5	2.14e5	1.72e5	11080	inactive
Tcs6 + PIG-P	1	1.64e5	1.69e5	1.87e5	2.04e5	14315	inactive
Tcs6 + PIG-P	2	1.53e5	1.39e5	1.71e5	1.89e5	11225	inactive
RhoGAP71E	1	1.50e5	1.10e5	1.03e5	1.24e5	10210	inactive
RhoGAP71E	2	1.19e5	1.10e5	1.37e5	1.44e5	5490	inactive
RhoGAP71E	3	1.59e5	2.18e5	2.77e5	2.41e5	8345	inactive
CG18853	1	2.04e5	1.76e5	2.59e5	2.98e5	18415	inactive
CG10055	1	1.32e5	1.14e5	1.03e5	85340	9962	inactive
CG32344	1	95755	89160	1.77e5	1.87e5	7535	inactive
CG7408	1	2.10e5	2.01e5	2.74e5	2.08e5	10050	inactive
Obp57e	1	93605	96625	1.07e5	74835	8520	inactive
CG12343	1	1.45e5	1.12e5	1.79e5	1.41e5	9875	inactive
CG11656	1	1.33e5	1.21e5	89355	87390	10482	inactive
app	1	2.09e5	1.91e5	1.52e5	1.84e5	13440	inactive
app	2	1.51e5	1.25e5	2.08e5	1.71e5	7055	inactive
app	3	2.73e5	1.84e5	3.33e5	2.56e5	15795	inactive
CG14817	1	1.14e5	1.18e5	1.68e5	2.47e5	7255	inactive
conv	1	63145	85385	93505	94740	6340	inactive
CG13084	1	35475	30875	29095	58350	1992	inactive
CG9616	1	3.11e5	3.54e5	3.09e5	3.46e5	22040	inactive
CG42566	1	68180	62870	79585	75655	8070	inactive
Camp	1	1.70e5	1.12e5	1.45e5	1.77e5	10232	inactive
CG32563	1	21500	21775	20900	17315	2400	inactive
Ttc7	1	1.83e5	1.75e5	1.86e5	2.02e5	14340	inactive
CG34276	1	1.90e5	2.08e5	2.20e5	2.32e5	17575	inactive
Hydr2	1	1.77e5	2.14e5	2.05e5	1.81e5	19245	inactive
AstC	1	1.31e5	1.74e5	69665	1.01e5	19120	inactive
CG9328	1	1.44e5	1.54e5	1.38e5	1.39e5	10965	inactive
Ass + CG31286	1	1.08e5	1.12e5	1.08e5	83085	7875	inactive
Noc1	1	93475	1.36e5	67320	28385	10592	inactive
Ih	1	1.48e5	1.31e5	1.52e5	1.53e5	14050	inactive
Slmap	1	34310	24895	30390	20470	1990	inactive
CG33223	1	68940	66050	80675	68355	6160	inactive
CG10102 (retired record)	1	58280	57040	82420	73070	5165	inactive
CG8745	1	1.12e5	1.24e5	85480	1.25e5	10250	inactive
CG8745	2	2.20e5	1.70e5	2.79e5	3.28e5	11965	inactive
Phae1	1	2.05e5	2.05e5	1.64e5	2.26e5	17830	inactive
CG16800	1	1.31e5	1.52e5	1.48e5	1.59e5	10985	inactive

An excerpt from the list above, as a working copy:
gene	reagent no.	induced reporter light, run 1, well a	induced reporter light, run 1, well b	control promoter light, run 1, well a	control promoter light, run 1, well b	uninduced reporter light, run 1, well a	Call
Tcs6 + PIG-P	2	1.53e5	1.39e5	1.71e5	1.89e5	11225	inactive
RhoGAP71E	1	1.50e5	1.10e5	1.03e5	1.24e5	10210	inactive
RhoGAP71E	2	1.19e5	1.10e5	1.37e5	1.44e5	5490	inactive
RhoGAP71E	3	1.59e5	2.18e5	2.77e5	2.41e5	8345	inactive
CG18853	1	2.04e5	1.76e5	2.59e5	2.98e5	18415	inactive
CG10055	1	1.32e5	1.14e5	1.03e5	85340	9962	inactive
CG32344	1	95755	89160	1.77e5	1.87e5	7535	inactive
CG7408	1	2.10e5	2.01e5	2.74e5	2.08e5	10050	inactive
Obp57e	1	93605	96625	1.07e5	74835	8520	inactive
CG12343	1	1.45e5	1.12e5	1.79e5	1.41e5	9875	inactive

Next results follow:
gene	reagent no.	induced reporter light, run 1, well a	induced reporter light, run 1, well b	control promoter light, run 1, well a	control promoter light, run 1, well b	uninduced reporter light, run 1, well a	Call
EAChm	1	2.01e5	1.43e5	2.20e5	2.14e5	10835	inactive
Ptp10D	1	1.16e5	1.18e5	2.70e5	1.91e5	9510	inactive
mTerf3	1	1.42e5	1.16e5	73420	70825	9955	inactive
CG42326	1	2.08e5	1.71e5	2.05e5	2.07e5	15440	inactive
CG42326	2	1.55e5	1.50e5	2.06e5	2.00e5	13085	inactive
Gr85a	1	1.56e5	2.25e5	1.95e5	2.18e5	13685	inactive
hop	1	1.05e5	92485	1.42e5	1.50e5	6845	inactive
TBC1d7	1	2.31e5	2.29e5	2.93e5	2.84e5	17440	inactive
CG15258	1	1.15e5	1.32e5	1.31e5	1.59e5	11145	inactive
osa	1	2.37e5	2.35e5	2.72e5	3.59e5	17585	inactive
Tango6	1	1.24e5	1.26e5	1.05e5	1.13e5	9475	inactive
Cht11	1	1.91e5	1.57e5	2.38e5	2.94e5	12780	inactive
CG15144	1	1.20e5	1.39e5	1.42e5	1.72e5	11755	inactive
CG12522	1	1.35e5	1.47e5	1.74e5	1.55e5	9415	inactive
CG10887	1	1.65e5	1.47e5	1.55e5	1.60e5	12040	inactive
CG7432	1	2.12e5	1.92e5	2.60e5	2.30e5	17920	inactive
Arglu1	1	1.34e5	1.58e5	66845	61345	20055	inactive
CG14488	1	1.23e5	83900	1.12e5	1.14e5	8090	inactive
Peritrophin-15a	1	1.30e5	1.42e5	80865	1.04e5	18580	inactive
Dcr-2	1	1.14e5	1.11e5	1.48e5	1.22e5	9405	inactive
CG31093	1	1.73e5	1.84e5	2.02e5	1.80e5	15170	inactive
CG1671	1	1.29e5	1.21e5	1.02e5	1.26e5	10430	inactive
BaraA1 + BaraA2	1	2.76e5	2.63e5	3.40e5	2.68e5	18335	inactive
Lsm12a	1	1.48e5	1.42e5	3.61e5	3.18e5	11450	inactive
